Laboratory results reported in PubChem BioAssay (EPA / NIEHS).
The shares of active, inactive and inconclusive entries below differ from those in the screen. Where the call is inconclusive, the potency comes from a doubtful curve fit. Some structures have more than one record in an assay (separate samples or runs), and their calls can disagree. Active and inactive are the calls of the source. The calls were made as follows: active = hit-call score of the fitted dose curve at least 0.9, where 1 is the maximum; inconclusive = response in the unintended direction; inactive = score below 0.9.

Assay: Tanguay_ZF_120hpf_SOMI_legacy: (Legacy) Oregon State University Tanguay Lab 120 Hour Post-fertilization zebrafish Assay for Somite Malformation (AID 2283647)
Protocol: Tanguay_ZF_120hpf_legacy is a whole embryo, multiplexed endpoint assay using zebrafish larvae exposed for 120 hours post fertilization on a 96-well plate.Tanguay_ZF_120hpf_SOMI_legacy is one of one assay component(s) measured or calculated from the Tanguay_ZF_120hpf_legacy assay. It is designed to make measurements of zebrafish development as detected with brightfield microscopy of developing zebrafish embryos.Data from the assay component Tanguay_ZF_120hpf_SOMI_legacy was analyzed into 1 assay endpoints. This assay endpoint, Tanguay_ZF_120hpf_SOMI_legacy, was analyzed in the positive analysis fitting direction relative to DMSO as the negative control and baseline of activity. Using a type of morphology reporter, gain-of-signal activity can be used to understand changes in developmentals as they relate to the whole embryo. To generalize the intended target to other relatable targets, this assay endpoint is annotated to the zebrafish development intended target family, where the subfamily is somitogenesis.
Zebrafish husbandry: Tropical 5D wild-type adult zebrafish were housed in at an approximate density of 1000 per 100 gallon tank at the Sinnhuber Aquatic Research Laboratory, Oregon State University, Corvallis, OR. Each tank was kept at standard laboratory conditions of 28C on a 14-h light/10-h dark photoperiod in fish water consisting of reverse osmosis water supplemented with a commercially available salt (Instant Ocean). Spawning funnels were placed into the tanks the night prior, and embryos were collected and staged. To increase bioavailability, the chorion was enzymatically removed using pronase (63.6mg/ml, >/= 3.5U/mg, Sigma-Aldrich: P5147) at 4 hours post fertilization (hpf) using a custom automated dechorionator.Chemical exposures: Six hpf dechorionated embryos were placed 1 embryo per well in a 96-well plate prefilled with 90 ul of EM using automated embryo placement systems (AEPS). Ten microliters of each row of dilution plate 2 was added to 2 exposure plates. The final DMSO concentration used was 0.64% (vol/vol). Thirty-two embryos were also exposed to 5uM trimethyltin chloride (positive control). Plates were sealed to prevent evaporation and foil covered to reduce light exposure and kept in a 28C incubator. Embryos were statically exposed until 120 hpf. At 24 hpf, embryos were assessed for photomotor response using a custom photomotor response analysis tool (PRAT) and for developmental toxicity endpoints (MO24: mortality at 24 hpf, DP: developmental progression, SM: spontaneous movement, and NC: notochord distortion). At 120 hpf, locomotor activity was measured using Viewpoint Zebralab and assessed for 18 endpoints. Zebrafish acquisition and analysis program (ZAAP), a custom program designed to inventory, acquire, and manage zebrafish data, was used to collect developmental endpoints as either present or absent (i.e., binary responses were recorded). If mortality occurred for an embryo (at either 24 or 120 hpf), the non-mortality endpoints were not measured.

**Q.** For `Cc1ccn2nc(S(=O)(=O)Nc3c(F)cccc3F)nc2n1`, which outcome is on record?
**A.** Its outcome is “inactive”.

**Q.** With `c1cc[n+]2c(c1)-c1cccc[n+]1CC2` as the compound, how does the AC50 read?
**A.** Its AC50 is inconclusive: 99.6 µM.

**Q.** Which outcome does the source give for `C=CCC1=C(C)C(OC(=O)C2C(C=C(C)C)C2(C)C)CC1=O` (stereo not given) here?
**A.** The outcome was “inactive”.

**Q.** For `CNC(=O)Oc1ccccc1OC(C)C`, which AC50 is on record?
**A.** Its AC50 is inconclusive: 2.07 µM.

**Q.** With `CO/C=C(/C(=O)OC)c1ccccc1COc1cccc(C(F)(F)F)n1` as the compound, how does the AC50 read?
**A.** The AC50 was active: 18.1 µM.

**Q.** For `Cc1ccc([N+](=O)[O-])cc1C`, which AC50 is on record?
**A.** The AC50 was inconclusive: 11.8 µM.

**Q.** With `Clc1nc(Cl)nc(Nc2ccccc2Cl)n1` as the compound, how does the AC50 read?
**A.** The AC50 was inconclusive: 12.7 µM.

**Q.** For `CCNP(=S)(OC)O/C(C)=C/C(=O)OC(C)C` (stereo not given), which AC50 is on record?
**A.** The AC50 was inconclusive: 0.772 µM.

**Q.** With `CCCCCCCCCC[N+](C)(C)CCCCCCCCCC` as the compound, how does the AC50 read?
**A.** The AC50 was inconclusive: 2.67 µM.

**Q.** With `O=P1(N(CCCl)CCCl)NCCCO1` (stereo not given) as the compound, how does the outcome read?
**A.** The outcome was “inactive”.

**Q.** With `CC1(C)C(C=C(Cl)Cl)C1C(=O)OC(C#N)c1cccc(Oc2ccccc2)c1` (stereo not given) as the compound, how does the AC50 read?
**A.** The AC50 was active: 1.86 µM.

**Q.** With `CC(C)Oc1cc(-n2nc(C(C)(C)C)oc2=O)c(Cl)cc1Cl` as the compound, how does the AC50 read?
**A.** Its AC50 is inconclusive: 26.7 µM.

**Q.** For `CC(C)(c1ccccc1)c1ccc(O)c(C(C)(C)c2ccccc2)c1`, which AC50 is on record?
**A.** Its AC50 is inconclusive: 18.5 µM.

**Q.** Which outcome does the source give for `O=S1OCC2C(CO1)C1(Cl)C(Cl)=C(Cl)C2(Cl)C1(Cl)Cl` (stereo not given) here?
**A.** Its outcome is “inactive”.

**Q.** Which AC50 does the source give for `COP(=S)(OC)SCn1nnc2ccccc2c1=O` here?
**A.** Its AC50 is inconclusive: 168 µM.

**Q.** Which AC50 does the source give for `Clc1ccc(C(c2ccc(Cl)cc2)C(Cl)Cl)cc1` here?
**A.** Its AC50 is inconclusive: 1.84 µM.

**Q.** Which AC50 does the source give for `CN(C)c1nc(=O)n(C2CCCCC2)c(=O)n1C` here?
**A.** Its AC50 is inconclusive: 37.7 µM.

**Q.** With `Nc1c(Cl)c(Cl)nc(C(=O)O)c1Cl` as the compound, how does the AC50 read?
**A.** Its AC50 is inconclusive: 67.5 µM.

**Q.** With `Cc1cc(C2CC2)nc(Nc2ccccc2)n1` as the compound, how does the AC50 read?
**A.** Its AC50 is inconclusive: 202 µM.

**Q.** With `Clc1ccc(C(c2ccccc2Cl)C(Cl)(Cl)Cl)cc1` (stereo not given) as the compound, how does the AC50 read?
**A.** Its AC50 is inconclusive: 34.7 µM.

**Q.** For `CCNS(=O)(=O)C(F)(F)C(F)(F)C(F)(F)C(F)(F)C(F)(F)C(F)(F)C(F)(F)C(F)(F)F`, which AC50 is on record?
**A.** The AC50 was active: 9.56 µM.

**Q.** Which AC50 does the source give for `CC1(c2ccc(Oc3ccccc3)cc2)OC(=O)N(Nc2ccccc2)C1=O` (stereo not given) here?
**A.** Its AC50 is inconclusive: 16 µM.

**Q.** For `CC1=C2C[C@H]3[C@@H](CC=C4C[C@@H](O)CC[C@@]43C)[C@@H]2CC[C@]12O[C@@H]1C[C@H](C)CN[C@H]1[C@H]2C`, which outcome is on record?
**A.** The outcome was “inactive”.

**Q.** For `CN(C)C(=S)SSC(=S)N(C)C`, which outcome is on record?
**A.** The outcome was “inactive”.

**Q.** With `Cn1sc(Cl)cc1=O` as the compound, how does the AC50 read?
**A.** The AC50 was inconclusive: 20.2 µM.

**Q.** Which outcome does the source give for `COc1ccc(C(c2ccc(OC)cc2)C(Cl)(Cl)Cl)cc1` here?
**A.** Its outcome is “inactive”.

**Q.** With `O=[N+]([O-])c1ccc(O)c([N+](=O)[O-])c1` as the compound, how does the AC50 read?
**A.** Its AC50 is inconclusive: 1.78 µM.

**Q.** Which AC50 does the source give for `OC(c1ccc(Cl)cc1)(c1ccc(Cl)cc1)C(Cl)(Cl)Cl` here?
**A.** Its AC50 is inconclusive: 179 µM.

**Q.** With `CCCCCCCCn1sccc1=O` as the compound, how does the AC50 read?
**A.** The AC50 was inconclusive: 2.88 µM.

**Q.** Which AC50 does the source give for `Oc1ccc(C(c2ccc(O)cc2)(C(F)(F)F)C(F)(F)F)cc1` here?
**A.** Its AC50 is inconclusive: 202 µM.

**Q.** Which AC50 does the source give for `CC(C)(C)C(O)C(Oc1ccc(Cl)cc1)n1cncn1` (stereo not given) here?
**A.** Its AC50 is active: 46 µM.

**Q.** With `CS(=O)(=O)c1ccc(C(=O)C2C(=O)CCCC2=O)c([N+](=O)[O-])c1` as the compound, how does the outcome read?
**A.** The outcome was “inactive”.

**Q.** For `CC(C)COC(=O)c1ccccc1C(=O)OCC(C)C`, which AC50 is on record?
**A.** The AC50 was active: 50.6 µM.

**Q.** For `O=C1c2ccccc2C(=O)N1SC(Cl)(Cl)Cl`, which AC50 is on record?
**A.** The AC50 was inconclusive: 202 µM.

**Q.** For `C=CCOC(=O)C(C)(C)OC(=O)c1cc(-n2c(=O)cc(C(F)(F)F)n(C)c2=O)ccc1Cl`, which AC50 is on record?
**A.** Its AC50 is inconclusive: 97.2 µM.

**Q.** For `CC(=O)[O][Hg][c]1ccccc1`, which outcome is on record?
**A.** The outcome was “inactive”.

**Q.** For `O=S(=O)(O)C(F)(F)C(F)(F)C(F)(F)C(F)(F)F`, which AC50 is on record?
**A.** Its AC50 is inconclusive: 144 µM.

**Q.** For `Clc1ccccc1-c1nnc(-c2ccccc2Cl)nn1`, which AC50 is on record?
**A.** The AC50 was inconclusive: 26.5 µM.

**Q.** With `N#Cc1c(Cl)c(Cl)c(Cl)c(C#N)c1Cl` as the compound, how does the outcome read?
**A.** Its outcome is “inactive”.

**Q.** For `C[C@]12CCC(=O)C[C@@H]1CC[C@@H]1[C@@H]2CC[C@]2(C)[C@@H](O)CC[C@@H]12`, which outcome is on record?
**A.** The outcome was “inactive”.
